The target in this assay is cohesin in budding yeast cell extract (S. cerevisiae) (UniProt P32908+P47037+Q12158+P40541). The assay is described as follows: co-IP; interaction of cohesin and the cohesin loader in cell extracts, in the presence or absence of Sth1 (Figure S4C); bait and blots not given.

Amino acid sequences for entries named in this document (tags omitted). A change or cut given only in a name is not applied to a line headed by its entry.
UniProt P32908: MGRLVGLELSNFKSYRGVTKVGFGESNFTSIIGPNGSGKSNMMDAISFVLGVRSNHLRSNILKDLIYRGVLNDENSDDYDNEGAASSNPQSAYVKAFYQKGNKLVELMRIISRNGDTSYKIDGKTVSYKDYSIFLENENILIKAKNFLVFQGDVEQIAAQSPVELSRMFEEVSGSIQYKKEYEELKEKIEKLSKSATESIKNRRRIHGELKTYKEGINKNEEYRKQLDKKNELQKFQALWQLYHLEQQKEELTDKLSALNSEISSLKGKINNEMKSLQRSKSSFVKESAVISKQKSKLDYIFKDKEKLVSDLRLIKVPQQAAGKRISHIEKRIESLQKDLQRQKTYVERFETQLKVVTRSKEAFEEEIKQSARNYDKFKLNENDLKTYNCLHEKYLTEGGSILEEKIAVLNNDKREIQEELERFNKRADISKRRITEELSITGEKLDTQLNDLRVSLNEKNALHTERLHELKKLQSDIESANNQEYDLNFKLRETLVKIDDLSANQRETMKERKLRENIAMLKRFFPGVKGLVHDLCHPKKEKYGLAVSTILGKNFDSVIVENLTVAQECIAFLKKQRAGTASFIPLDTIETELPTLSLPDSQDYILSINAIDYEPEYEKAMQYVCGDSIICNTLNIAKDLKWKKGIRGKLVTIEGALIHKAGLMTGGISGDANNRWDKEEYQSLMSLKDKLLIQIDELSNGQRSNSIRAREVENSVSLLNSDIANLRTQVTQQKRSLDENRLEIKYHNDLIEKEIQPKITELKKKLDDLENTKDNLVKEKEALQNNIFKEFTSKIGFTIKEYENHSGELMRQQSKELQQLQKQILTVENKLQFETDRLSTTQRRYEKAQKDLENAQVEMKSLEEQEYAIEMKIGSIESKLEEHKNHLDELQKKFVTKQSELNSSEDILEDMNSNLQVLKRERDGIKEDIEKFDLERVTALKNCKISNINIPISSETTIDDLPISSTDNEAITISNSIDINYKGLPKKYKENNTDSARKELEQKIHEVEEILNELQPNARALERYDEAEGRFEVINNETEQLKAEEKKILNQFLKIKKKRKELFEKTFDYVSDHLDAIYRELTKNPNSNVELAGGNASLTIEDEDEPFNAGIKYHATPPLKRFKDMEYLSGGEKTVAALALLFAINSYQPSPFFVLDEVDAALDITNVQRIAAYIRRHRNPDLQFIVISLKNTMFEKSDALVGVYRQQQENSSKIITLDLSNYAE
UniProt P47037: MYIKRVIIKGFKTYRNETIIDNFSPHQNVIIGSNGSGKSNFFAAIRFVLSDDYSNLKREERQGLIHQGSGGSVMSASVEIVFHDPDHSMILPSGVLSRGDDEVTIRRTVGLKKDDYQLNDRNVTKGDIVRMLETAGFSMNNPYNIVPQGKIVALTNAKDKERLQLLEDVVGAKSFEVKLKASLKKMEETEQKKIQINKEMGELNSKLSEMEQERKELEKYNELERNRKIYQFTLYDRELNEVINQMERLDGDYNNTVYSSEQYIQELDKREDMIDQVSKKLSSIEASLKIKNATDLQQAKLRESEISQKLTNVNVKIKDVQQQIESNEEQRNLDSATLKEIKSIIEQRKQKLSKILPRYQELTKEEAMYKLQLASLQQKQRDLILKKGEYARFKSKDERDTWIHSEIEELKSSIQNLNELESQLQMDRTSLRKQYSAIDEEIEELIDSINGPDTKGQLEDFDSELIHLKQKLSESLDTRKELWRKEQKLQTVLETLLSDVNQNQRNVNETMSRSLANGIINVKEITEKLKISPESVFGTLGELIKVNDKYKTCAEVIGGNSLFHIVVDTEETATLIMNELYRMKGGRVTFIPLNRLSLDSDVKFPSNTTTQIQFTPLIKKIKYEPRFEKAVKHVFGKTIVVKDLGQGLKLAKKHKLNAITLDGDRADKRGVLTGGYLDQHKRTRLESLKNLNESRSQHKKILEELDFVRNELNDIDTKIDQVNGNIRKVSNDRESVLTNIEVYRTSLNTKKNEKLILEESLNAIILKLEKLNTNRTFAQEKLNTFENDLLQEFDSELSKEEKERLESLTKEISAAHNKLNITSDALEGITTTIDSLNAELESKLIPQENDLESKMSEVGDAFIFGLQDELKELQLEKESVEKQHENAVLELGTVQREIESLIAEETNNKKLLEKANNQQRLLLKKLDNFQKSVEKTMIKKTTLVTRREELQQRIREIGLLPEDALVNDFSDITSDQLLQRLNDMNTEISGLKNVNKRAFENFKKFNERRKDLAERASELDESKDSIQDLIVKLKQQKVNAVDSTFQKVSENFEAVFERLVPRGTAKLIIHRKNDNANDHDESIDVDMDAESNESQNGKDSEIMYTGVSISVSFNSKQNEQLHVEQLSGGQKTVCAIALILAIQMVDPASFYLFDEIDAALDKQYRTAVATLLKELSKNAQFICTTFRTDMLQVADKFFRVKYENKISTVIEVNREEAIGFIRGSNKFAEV
UniProt Q12158: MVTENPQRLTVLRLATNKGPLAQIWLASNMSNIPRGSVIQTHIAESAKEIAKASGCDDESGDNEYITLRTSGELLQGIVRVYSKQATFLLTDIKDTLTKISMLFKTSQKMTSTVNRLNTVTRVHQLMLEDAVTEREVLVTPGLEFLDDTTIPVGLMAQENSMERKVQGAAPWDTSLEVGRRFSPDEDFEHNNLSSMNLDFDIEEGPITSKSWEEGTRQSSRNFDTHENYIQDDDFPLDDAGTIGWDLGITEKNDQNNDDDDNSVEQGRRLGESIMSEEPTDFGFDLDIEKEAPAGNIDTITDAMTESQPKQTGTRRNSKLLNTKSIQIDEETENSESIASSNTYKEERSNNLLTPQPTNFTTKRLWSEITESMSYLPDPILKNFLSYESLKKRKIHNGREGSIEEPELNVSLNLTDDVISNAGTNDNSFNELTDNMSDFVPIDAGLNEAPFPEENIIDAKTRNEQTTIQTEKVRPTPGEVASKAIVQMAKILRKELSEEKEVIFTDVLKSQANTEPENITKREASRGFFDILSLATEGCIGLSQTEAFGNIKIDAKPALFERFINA
UniProt P40541: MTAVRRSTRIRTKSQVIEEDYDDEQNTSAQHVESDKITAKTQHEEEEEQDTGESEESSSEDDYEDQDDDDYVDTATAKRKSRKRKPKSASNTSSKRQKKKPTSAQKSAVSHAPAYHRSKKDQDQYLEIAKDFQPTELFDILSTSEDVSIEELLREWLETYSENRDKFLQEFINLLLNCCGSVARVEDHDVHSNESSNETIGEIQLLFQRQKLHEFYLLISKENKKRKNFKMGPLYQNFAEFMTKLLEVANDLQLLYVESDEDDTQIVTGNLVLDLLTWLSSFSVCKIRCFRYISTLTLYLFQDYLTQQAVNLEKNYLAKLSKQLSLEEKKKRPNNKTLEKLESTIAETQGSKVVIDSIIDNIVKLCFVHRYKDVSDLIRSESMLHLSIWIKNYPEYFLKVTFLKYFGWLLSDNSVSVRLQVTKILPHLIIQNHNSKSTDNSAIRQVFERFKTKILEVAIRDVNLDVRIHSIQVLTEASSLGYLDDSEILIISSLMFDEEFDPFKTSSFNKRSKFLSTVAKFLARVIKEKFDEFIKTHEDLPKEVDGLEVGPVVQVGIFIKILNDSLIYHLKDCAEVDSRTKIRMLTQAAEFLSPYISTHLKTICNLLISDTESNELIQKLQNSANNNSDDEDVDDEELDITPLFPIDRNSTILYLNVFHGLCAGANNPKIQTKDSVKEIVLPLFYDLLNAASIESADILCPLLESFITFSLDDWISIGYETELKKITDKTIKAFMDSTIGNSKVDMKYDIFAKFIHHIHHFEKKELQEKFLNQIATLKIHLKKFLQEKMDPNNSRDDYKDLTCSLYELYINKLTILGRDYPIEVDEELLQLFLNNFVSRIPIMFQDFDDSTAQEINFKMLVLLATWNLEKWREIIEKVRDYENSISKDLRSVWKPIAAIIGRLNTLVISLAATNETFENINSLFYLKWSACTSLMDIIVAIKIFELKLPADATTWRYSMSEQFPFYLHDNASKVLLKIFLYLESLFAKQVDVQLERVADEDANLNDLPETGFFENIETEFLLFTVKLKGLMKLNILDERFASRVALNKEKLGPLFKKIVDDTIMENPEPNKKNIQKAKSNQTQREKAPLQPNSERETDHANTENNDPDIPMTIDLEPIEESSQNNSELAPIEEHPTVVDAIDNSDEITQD
UniProt Q04002: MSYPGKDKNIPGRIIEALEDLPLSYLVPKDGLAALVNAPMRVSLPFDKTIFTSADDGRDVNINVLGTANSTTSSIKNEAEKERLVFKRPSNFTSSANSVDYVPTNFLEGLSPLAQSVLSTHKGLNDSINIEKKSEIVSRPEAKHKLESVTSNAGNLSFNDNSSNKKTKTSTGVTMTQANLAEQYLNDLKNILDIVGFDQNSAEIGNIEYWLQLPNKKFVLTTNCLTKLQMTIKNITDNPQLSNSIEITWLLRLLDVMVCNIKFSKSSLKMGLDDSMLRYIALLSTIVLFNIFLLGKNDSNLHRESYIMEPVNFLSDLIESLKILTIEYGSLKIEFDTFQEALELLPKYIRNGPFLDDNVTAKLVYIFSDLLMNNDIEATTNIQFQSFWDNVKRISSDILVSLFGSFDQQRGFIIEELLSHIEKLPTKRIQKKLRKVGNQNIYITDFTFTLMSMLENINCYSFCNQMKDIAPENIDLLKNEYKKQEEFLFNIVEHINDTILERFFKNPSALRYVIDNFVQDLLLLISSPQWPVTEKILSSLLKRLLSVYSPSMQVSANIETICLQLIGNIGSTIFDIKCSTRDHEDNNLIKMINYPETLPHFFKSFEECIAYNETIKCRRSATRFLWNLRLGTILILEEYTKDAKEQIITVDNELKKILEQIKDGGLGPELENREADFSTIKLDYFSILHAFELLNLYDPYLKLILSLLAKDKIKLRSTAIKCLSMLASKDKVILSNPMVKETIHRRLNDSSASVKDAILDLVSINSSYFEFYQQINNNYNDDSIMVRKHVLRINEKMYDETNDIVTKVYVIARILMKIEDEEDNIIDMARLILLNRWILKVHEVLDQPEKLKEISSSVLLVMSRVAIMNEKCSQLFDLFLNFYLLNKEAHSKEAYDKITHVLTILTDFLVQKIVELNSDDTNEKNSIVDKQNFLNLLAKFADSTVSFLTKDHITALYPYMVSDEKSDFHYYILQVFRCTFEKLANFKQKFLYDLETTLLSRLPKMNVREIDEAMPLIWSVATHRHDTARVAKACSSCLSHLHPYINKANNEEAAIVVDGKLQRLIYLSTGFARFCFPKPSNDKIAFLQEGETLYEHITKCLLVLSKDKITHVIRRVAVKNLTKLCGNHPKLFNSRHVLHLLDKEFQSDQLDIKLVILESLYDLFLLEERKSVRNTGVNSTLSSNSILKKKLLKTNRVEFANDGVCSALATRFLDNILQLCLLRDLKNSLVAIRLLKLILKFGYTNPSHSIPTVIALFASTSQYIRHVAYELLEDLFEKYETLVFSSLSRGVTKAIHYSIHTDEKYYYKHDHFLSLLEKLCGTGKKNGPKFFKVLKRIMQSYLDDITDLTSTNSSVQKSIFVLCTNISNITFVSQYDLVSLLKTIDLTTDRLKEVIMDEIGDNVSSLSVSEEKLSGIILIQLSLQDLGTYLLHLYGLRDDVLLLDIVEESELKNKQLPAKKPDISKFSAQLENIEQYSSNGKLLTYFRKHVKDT

These are yes or no findings as the source states them, for the method shown. Binding seen in cells or lysates may run through a third protein. Some binding calls cover weakened binding; strength is not graded here.

Regarding “cohesin loader in budding yeast cell extract (from UniProt Q04002 1-1493; P40090 1-624) (complex)”, the binding entry is “binds”.

Source of the values: PMC6527865.
